PubChem BioAssay AID1259308, NCATS | 2017
In all, the deposit lists about 59,000 reagents; below is an unselected part. Of all reagents, about 1,510 (2.6%) are marked active. 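Calls use total luciferase alone and ignore viability, so some active siRNAs may act by altering cell number.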 Entries without a mark were called inactive. Reagents against one gene are numbered here. Further read-outs or replicates are left out here.

- Assay: 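Candidate targets for better recombinant protein yield in mammalian cells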 (primary screen)
- System: human HEK293 embryonic kidney cells stably expressing firefly luciferase (HEK-CMV-Luc2-Hygro)
- Knock-down reagent: single siRNA against human genes, 0.8 pmol siRNA per well
- Time to read-out: 72 h
- Measured: 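Luciferase light (ONE-Glo) measured on one replicate plate set and viability (CellTiter-Glo) on the other, scaled to a negative control siRNA, with robust z-scores and luciferase per cell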
- Scale: total luciferase, z-score: higher = more reporter protein produced
- Call rule: 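Active when the median/MAD z-score for overall luciferase is greater than 3; a gene was taken forward for validation with new siRNAs if at least two of its three siRNAs passed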
- Meaning of the calls: active = raised luciferase; inactive = no rise

| gene | reagent no. | total luciferase, z-score |
| --- | --- | --- |
| TMEM198 | 1 | 1.36 |
| TMEM198 | 2 | -1.5 |
| TMEM198 | 3 | -0.0763 |
| GPX1 | 1 | -0.149 |
| GPX1 | 2 | -0.183 |
| GPX1 | 3 | -1.43 |
| SLC35H1 | 1 | 1.68 |
| SLC35H1 | 2 | -0.78 |
| SLC35H1 | 3 | -0.774 |
| PRSS23 | 1 | -0.183 |
| PRSS23 | 2 | 0.551 |
| PRSS23 | 3 | 0.148 |
| FAM180A | 1 | -1.42 |
| FAM180A | 2 | -0.131 |
| FAM180A | 3 | 1.76 |
| MUC20 | 1 | -1.81 |
| MUC20 | 2 | 0.557 |
| MUC20 | 3 | 0.691 |
| NUDT22 | 1 | 1.4 |
| NUDT22 | 2 | 2.36 |
| NUDT22 | 3 | -0.0825 |
| OR10H2 | 1 | 0.812 |
| OR10H2 | 2 | 2.51 |
| OR10H2 | 3 | 1.11 |
| UBE2N | 1 | 0.285 |
| UBE2N | 2 | 1.87 |
| UBE2N | 3 | 0.961 |
| SLC25A5 | 1 | 2.62 |
| SLC25A5 | 2 | -1.19 |
| SLC25A5 | 3 | 1.1 |
| LCORL | 1 | 3.5 (active) |
| LCORL | 2 | -0.324 |
| LCORL | 3 | -1.53 |
| JCHAIN | 1 | 1.99 |
| JCHAIN | 2 | 0.168 |
| JCHAIN | 3 | 2.05 |

A few values from the list:
UBE2N #2, total luciferase, z-score = 1.87
For “total luciferase, z-score”, UBE2N #3 has 0.961
Entry of FAM180A #1 in “total luciferase, z-score”: -1.42
NUDT22 #3, total luciferase, z-score → -0.0825
Value of NUDT22 #2 in “total luciferase, z-score”: 2.36

More results follow.
| gene | reagent no. | total luciferase, z-score |
| --- | --- | --- |
| PXDNL | 1 | -0.643 |
| PXDNL | 2 | -0.215 |
| PXDNL | 3 | -0.766 |
| AP4M1 | 1 | 0.126 |
| AP4M1 | 2 | -2.73 |
| AP4M1 | 3 | -0.947 |
| ADAMTS12 | 1 | -2.1 |
| ADAMTS12 | 2 | -0.408 |
| ADAMTS12 | 3 | -0.639 |
| FUNDC2 | 1 | -2.61 |
| FUNDC2 | 2 | -0.0222 |
| FUNDC2 | 3 | 3.69 (active) |
| KCNIP3 | 1 | 2.01 |
| KCNIP3 | 2 | 0.551 |
| KCNIP3 | 3 | -0.225 |
| ANO10 | 1 | -0.266 |
| ANO10 | 2 | -0.341 |
| ANO10 | 3 | 0.368 |
| SGCD | 1 | -1.53 |
| SGCD | 2 | -0.57 |
| SGCD | 3 | -0.534 |
